Read-outs that look alike come from different tables or passages of the source.
How the values were obtained:
[1] = Turbidity on adding selegiline-HCl and a deprotonating agent to water; format: physicochemical; conditions: selegiline-HCl plus deprotonating agent in water, visual
[2] = format: physicochemical; conditions: propylene glycol as test medium, compared with stoichiometric value

Row | SMILES | TURBIDITY [1] | TURBIDITY ([1]; listed as aniline) | Selegiline Free Base Conversion [2] | Selegiline Free Base Conversion ([2]; listed as Amiline)
1 | NCCO [Ethanolamine] | Yes | – | – | –
2 | Nc1ccccc1 [Aniline] | No | no turbidity | no conversion | 0%

Reference: US7638140B2, “Adhesive mixture for transdermal delivery of highly plasticizing drugs” (priority 1997, dated 2009)
